± gives the standard deviation of the averaged measurements. Only a part is listed here, and it is no random draw. Most entries show no effect beyond the scatter of the controls.
Compound: Nc1ncnc2c1ncn2[C@@H]1O[C@H](COP(=O)(O)OP(=O)(O)NP(=O)(O)O)[C@@H](O)[C@H]1O [adenylyl imidodiphosphate]
Experiment: NP40-soluble protein abundance relative to vehicle (solubility fold change) (ratio); higher = more soluble protein in presence of AMP-PNP
In short: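 Across three independent experiments, values are fold changes against the detergent-processed vehicle for each replicate, based on vsn-normalised intensities. The samples were Jurkat crude lysate treated with eight concentrations (0.1 to 10 mM) for 10 min at room temperature and then 3 min at 37 °C. Lysate was solubilised with 0.8% NP40 and benzonase, ultracentrifuged, and the supernatant analysed by TMT-labelled LC-MS/MS.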

Sequences of proteins named here, by UniProt entry; tags and fusion partners are left off. A change or cut given only in a name is not applied to a line headed by its entry.
UniProt P57105: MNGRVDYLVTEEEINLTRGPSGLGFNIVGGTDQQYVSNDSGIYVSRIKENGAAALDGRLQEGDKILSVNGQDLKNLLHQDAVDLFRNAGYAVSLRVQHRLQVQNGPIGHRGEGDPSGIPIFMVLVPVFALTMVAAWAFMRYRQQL
UniProt Q9H8E8: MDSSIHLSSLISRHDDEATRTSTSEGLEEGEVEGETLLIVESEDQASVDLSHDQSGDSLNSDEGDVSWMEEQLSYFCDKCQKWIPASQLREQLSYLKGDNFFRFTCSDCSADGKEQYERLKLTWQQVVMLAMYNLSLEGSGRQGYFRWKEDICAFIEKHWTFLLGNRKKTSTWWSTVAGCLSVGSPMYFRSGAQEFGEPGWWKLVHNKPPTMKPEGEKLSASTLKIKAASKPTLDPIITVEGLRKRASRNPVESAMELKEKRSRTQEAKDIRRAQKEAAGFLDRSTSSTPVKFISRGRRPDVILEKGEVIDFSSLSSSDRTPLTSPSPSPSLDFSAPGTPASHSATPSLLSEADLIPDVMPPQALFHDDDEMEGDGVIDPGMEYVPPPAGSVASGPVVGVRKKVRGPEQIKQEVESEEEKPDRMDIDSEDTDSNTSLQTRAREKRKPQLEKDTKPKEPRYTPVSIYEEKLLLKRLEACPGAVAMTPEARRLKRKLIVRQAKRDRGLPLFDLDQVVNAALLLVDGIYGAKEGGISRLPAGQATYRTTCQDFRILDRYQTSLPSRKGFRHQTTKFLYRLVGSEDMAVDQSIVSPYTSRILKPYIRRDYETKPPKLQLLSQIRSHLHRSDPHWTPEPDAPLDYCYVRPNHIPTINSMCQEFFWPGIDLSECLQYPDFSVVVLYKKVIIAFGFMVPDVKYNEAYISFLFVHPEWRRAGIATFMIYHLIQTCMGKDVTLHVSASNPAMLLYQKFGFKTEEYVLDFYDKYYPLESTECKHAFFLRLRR
UniProt Q9Y314: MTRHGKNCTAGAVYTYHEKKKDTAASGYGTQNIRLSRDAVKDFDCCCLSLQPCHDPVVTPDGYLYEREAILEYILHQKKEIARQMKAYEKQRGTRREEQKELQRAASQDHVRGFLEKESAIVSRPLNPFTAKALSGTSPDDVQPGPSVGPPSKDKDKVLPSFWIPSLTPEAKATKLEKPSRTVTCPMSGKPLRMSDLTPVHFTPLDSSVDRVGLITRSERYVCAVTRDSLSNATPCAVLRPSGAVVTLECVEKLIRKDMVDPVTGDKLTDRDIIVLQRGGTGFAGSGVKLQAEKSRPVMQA
UniProt Q9H0U3: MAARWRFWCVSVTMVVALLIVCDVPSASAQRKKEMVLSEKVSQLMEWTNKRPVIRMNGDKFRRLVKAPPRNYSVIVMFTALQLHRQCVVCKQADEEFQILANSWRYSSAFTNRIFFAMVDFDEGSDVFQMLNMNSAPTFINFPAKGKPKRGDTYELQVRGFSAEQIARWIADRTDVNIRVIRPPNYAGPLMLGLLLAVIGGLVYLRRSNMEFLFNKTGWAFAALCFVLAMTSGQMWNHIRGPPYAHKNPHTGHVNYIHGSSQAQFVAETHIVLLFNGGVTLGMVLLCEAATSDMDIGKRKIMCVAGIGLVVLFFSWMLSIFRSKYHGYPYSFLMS
UniProt P25787: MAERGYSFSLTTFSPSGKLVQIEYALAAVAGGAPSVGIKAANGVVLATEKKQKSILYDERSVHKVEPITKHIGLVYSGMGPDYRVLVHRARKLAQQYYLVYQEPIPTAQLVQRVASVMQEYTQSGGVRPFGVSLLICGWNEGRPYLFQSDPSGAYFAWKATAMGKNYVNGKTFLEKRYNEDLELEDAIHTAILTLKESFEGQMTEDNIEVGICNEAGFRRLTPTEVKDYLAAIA
UniProt P47974: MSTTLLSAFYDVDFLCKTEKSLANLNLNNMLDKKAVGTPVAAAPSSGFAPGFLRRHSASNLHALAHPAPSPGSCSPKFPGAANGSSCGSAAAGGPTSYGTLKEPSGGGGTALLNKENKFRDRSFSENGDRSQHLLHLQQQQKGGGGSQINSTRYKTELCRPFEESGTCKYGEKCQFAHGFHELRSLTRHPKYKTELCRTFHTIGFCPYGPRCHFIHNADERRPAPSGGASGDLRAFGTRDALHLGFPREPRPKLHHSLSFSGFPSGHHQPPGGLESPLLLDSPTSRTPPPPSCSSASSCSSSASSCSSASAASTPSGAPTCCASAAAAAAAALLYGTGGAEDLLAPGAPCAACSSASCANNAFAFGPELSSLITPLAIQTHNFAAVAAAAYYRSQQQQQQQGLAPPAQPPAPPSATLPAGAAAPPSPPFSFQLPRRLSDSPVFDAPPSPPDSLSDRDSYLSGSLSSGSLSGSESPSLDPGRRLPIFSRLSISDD
UniProt Q9NRW7: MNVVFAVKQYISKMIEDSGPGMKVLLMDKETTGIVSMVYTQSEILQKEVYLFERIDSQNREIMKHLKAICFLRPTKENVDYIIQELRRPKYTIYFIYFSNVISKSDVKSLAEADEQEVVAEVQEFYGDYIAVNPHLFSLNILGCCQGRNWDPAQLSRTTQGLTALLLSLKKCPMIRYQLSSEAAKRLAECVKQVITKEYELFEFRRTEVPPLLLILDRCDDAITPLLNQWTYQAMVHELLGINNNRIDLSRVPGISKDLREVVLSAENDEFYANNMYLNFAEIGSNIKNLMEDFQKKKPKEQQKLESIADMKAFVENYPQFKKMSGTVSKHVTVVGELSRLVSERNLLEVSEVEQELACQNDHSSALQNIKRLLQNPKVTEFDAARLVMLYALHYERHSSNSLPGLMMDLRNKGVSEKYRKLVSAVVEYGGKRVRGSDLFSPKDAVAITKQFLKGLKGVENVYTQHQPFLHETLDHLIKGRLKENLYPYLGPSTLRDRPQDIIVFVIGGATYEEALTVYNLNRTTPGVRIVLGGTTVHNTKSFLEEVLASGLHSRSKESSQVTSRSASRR
UniProt Q8IWB9: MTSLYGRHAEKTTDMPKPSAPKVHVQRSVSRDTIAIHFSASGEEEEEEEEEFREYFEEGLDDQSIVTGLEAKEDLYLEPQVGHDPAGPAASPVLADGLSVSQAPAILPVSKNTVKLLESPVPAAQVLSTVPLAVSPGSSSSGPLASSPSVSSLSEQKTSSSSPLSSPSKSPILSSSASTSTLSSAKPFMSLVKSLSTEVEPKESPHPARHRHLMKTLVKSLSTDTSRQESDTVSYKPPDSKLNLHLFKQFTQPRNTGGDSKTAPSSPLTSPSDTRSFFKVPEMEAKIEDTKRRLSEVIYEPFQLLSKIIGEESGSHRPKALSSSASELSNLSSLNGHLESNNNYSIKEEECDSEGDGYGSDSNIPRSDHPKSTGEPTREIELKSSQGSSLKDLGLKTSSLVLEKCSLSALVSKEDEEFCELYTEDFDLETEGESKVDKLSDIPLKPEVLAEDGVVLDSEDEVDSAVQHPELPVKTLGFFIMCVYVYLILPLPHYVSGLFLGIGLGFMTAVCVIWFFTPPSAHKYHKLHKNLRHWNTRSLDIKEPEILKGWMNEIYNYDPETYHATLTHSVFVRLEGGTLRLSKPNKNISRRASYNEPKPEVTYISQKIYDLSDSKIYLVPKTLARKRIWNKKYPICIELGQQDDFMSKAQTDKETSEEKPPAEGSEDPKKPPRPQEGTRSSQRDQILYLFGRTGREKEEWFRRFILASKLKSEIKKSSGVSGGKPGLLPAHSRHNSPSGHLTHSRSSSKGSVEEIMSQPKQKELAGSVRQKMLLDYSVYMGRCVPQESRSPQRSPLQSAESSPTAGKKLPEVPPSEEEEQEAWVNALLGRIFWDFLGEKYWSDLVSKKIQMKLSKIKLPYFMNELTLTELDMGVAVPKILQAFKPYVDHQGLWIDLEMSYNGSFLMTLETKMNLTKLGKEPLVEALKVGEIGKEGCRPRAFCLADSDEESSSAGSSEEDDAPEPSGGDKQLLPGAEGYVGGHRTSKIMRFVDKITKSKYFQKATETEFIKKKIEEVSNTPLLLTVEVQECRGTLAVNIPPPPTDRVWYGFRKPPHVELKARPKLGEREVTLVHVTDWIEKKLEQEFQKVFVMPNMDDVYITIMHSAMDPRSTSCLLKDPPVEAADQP
UniProt Q9BSV6: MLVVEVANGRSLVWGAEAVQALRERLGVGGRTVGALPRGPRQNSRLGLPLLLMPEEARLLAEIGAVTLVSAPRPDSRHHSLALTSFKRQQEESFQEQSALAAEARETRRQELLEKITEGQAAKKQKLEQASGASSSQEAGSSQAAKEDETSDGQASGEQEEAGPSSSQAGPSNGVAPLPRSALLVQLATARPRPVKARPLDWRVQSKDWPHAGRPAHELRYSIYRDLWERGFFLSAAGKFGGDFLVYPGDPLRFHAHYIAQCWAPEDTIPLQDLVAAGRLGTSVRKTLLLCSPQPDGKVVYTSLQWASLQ
UniProt Q8N3Z3: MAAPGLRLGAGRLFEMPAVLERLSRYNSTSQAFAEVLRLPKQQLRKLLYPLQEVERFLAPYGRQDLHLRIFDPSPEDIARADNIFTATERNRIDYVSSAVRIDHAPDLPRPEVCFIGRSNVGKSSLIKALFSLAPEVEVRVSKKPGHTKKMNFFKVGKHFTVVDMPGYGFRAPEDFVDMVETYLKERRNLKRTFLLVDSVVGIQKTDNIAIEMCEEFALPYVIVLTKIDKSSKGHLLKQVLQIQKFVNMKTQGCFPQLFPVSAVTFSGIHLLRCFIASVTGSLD
UniProt O60841: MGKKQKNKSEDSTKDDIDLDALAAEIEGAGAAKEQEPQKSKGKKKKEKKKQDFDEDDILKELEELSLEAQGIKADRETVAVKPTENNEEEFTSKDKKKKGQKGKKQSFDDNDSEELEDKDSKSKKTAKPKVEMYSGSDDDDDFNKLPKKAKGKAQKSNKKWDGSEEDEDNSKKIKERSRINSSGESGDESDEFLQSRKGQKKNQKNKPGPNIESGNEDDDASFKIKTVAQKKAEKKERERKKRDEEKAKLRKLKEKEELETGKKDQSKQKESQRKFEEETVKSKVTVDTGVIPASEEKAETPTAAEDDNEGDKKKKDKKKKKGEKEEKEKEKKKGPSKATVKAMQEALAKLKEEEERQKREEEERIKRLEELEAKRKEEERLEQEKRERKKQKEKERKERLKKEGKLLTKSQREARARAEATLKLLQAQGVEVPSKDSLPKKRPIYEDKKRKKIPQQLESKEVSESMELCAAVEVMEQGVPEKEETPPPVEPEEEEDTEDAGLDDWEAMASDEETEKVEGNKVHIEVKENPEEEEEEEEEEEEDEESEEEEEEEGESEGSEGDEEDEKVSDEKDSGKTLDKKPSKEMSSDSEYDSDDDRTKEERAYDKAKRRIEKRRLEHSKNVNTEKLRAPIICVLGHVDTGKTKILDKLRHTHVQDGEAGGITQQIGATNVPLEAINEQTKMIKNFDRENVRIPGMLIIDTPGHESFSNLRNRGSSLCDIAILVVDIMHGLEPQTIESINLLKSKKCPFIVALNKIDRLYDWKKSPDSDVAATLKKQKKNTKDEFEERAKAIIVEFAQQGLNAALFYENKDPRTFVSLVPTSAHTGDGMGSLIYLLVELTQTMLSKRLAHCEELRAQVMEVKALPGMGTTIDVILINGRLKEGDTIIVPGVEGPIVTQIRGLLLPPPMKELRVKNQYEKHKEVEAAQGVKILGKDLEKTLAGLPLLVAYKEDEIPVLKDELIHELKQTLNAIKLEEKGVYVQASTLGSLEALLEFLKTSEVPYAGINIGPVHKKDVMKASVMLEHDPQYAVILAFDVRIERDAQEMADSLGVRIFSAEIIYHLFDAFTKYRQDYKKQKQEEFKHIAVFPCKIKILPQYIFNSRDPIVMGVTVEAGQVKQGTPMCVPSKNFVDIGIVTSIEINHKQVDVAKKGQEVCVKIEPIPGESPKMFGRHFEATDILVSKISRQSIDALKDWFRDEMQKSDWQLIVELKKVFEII
UniProt Q6PGQ7, whole entry, looked up: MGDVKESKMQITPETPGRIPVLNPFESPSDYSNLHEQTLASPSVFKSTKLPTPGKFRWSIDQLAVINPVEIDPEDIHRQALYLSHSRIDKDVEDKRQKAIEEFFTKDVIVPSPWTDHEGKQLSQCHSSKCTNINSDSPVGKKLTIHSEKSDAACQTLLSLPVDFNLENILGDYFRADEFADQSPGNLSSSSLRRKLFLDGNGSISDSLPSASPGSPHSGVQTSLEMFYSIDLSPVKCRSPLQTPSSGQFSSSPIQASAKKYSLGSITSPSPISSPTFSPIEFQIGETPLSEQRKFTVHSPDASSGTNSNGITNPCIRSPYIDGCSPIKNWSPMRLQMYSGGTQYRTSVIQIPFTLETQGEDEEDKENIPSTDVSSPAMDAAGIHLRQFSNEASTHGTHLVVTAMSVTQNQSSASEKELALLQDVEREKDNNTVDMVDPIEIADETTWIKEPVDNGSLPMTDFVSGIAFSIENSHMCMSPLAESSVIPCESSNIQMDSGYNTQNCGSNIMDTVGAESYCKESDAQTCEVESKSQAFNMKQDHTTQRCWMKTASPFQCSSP

Target: A0A087WUM0 (UniProt P57105)
- NP40-soluble protein abundance (concentration: 0.1mM): 0.965 ± 0.026
- NP40-soluble protein abundance (concentration: 0.5mM): 0.99 ± 0.041

Target: A0A075B6H4|Q9H8E8 (UniProt Q9H8E8)
- NP40-soluble protein abundance (concentration: 0.1mM): 1.02 ± 0.075
- NP40-soluble protein abundance (concentration: 0.5mM): 1.05 ± 0.03

Target: A0A087WTX2|Q92504 (UniProt Q92504)
- NP40-soluble protein abundance (concentration: 0.1mM): 0.9886 ± 0.0052
- NP40-soluble protein abundance (concentration: 0.5mM): 0.992 ± 0.018

Target: A0A075B6F9|Q9Y314 (UniProt Q9Y314)
- NP40-soluble protein abundance (concentration: 0.1mM): 0.983 ± 0.037
- NP40-soluble protein abundance (concentration: 0.5mM): 1.01 ± 0.02

Target: A0A087WU53|Q9H0U3 (UniProt Q9H0U3)
- NP40-soluble protein abundance (concentration: 0.1mM): 1.02 ± 0.054
- NP40-soluble protein abundance (concentration: 0.5mM): 0.987 ± 0.061

Target: A0A024RA52|P25787 (UniProt P25787)
- NP40-soluble protein abundance (concentration: 0.1mM): 0.98 ± 0.01
- NP40-soluble protein abundance (concentration: 0.5mM): 1.01 ± 0.023

Target: A0A075B716|H0YN88 and related entries (UniProt P08708)
- NP40-soluble protein abundance (concentration: 0.1mM): 1.06 ± 0.035
- NP40-soluble protein abundance (concentration: 0.5mM): 1.03 ± 0.045

Target: A0A087WUU9|P47974 (UniProt P47974)
- NP40-soluble protein abundance (concentration: 0.1mM): 1.007 ± 0.0073
- NP40-soluble protein abundance (concentration: 0.5mM): 0.998 ± 0.03

Target: A0A087WUH0|P28715 (UniProt P28715)
- NP40-soluble protein abundance (concentration: 0.1mM): 0.988 ± 0.027
- NP40-soluble protein abundance (concentration: 0.5mM): 1.03 ± 0.018

Target: A0A087WU65|Q9NRW7 (UniProt Q9NRW7)
- NP40-soluble protein abundance (concentration: 0.1mM): 1.019 ± 0.0019
- NP40-soluble protein abundance (concentration: 0.5mM): 0.974 ± 0.062

Target: A0A087WVA8|Q8IWB9 and related entries (UniProt Q8IWB9)
- NP40-soluble protein abundance (concentration: 0.1mM): 1.02 ± 0.041
- NP40-soluble protein abundance (concentration: 0.5mM): 0.988 ± 0.048

Target: A0A024R4N9|Q9BSV6 and related entries (UniProt Q9BSV6)
- NP40-soluble protein abundance (concentration: 0.1mM): 0.982 ± 0.022
- NP40-soluble protein abundance (concentration: 0.5mM): 0.986 ± 0.047

Target: A0A087WUP3|F8WBY6 and related entries (UniProt Q8N3Z3)
- NP40-soluble protein abundance (concentration: 0.1mM): 1.002 ± 0.008
- NP40-soluble protein abundance (concentration: 0.5mM): 0.981 ± 0.019

Target: A0A087WUT6|O60841 (UniProt O60841)
- NP40-soluble protein abundance (concentration: 0.1mM): 0.999 ± 0.036
- NP40-soluble protein abundance (concentration: 0.5mM): 1.01 ± 0.019

Target: A0A087WV86|B5LMG6 and related entries (UniProt Q6PGQ7+B5LMG6)
- NP40-soluble protein abundance (concentration: 0.1mM): 1.01 ± 0.026
- NP40-soluble protein abundance (concentration: 0.5mM): 1 ± 0.029

Target: A0A087WUW5|A0A0U1RRM4|A6NLN1 and related entries (UniProt P26599)
- NP40-soluble protein abundance (concentration: 0.1mM): 1.01 ± 0.012
- NP40-soluble protein abundance (concentration: 0.5mM): 1.02 ± 0.028
